Data as given in PubChem BioAssay AID504764 (Drosophila RNAi Screening Center, 2011).
Test: 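Knock-downs that raise or lower a Notch target reporter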 (primary screen). System: Drosophila Kc167 cells. Reagents: long dsRNA against Drosophila genes. Duration: about 5 days (4 days dsRNA, then 24 h after transfection). Challenge: transfection of constitutively active membrane-tethered Notch lacking the extracellular domain, read 24 h later. Measurement: 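Firefly luciferase from an E(spl)m3 reporter with active Notch, plus control-promoter and uninduced reporter wells for normalisation; unnormalised counts, duplicate wells a and b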. Scale: induced reporter light, run 1, well a and induced reporter light, run 1, well b: higher = more light from the Notch target reporter with active Notch; control promoter light, run 1, well a and control promoter light, run 1, well b: higher = more light from the viral control promoter (cell number, transfection, viability); uninduced reporter light, run 1, well a: higher = more light from the Notch target reporter without active Notch. Call rule: 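Wells with low control signal or poorly matching duplicates excluded; duplicates averaged; per source plate, z beyond ±2 for induced/control log2 ratio or beyond ±1.8 for induced/uninduced marks a hit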. Meaning of the calls: active = modifier hit (raised or lowered Notch signal); inactive = not a hit.
The deposit covers about 22,000 reagents; shown is an unselected part of those that have a named target and a result. Of all reagents, 403 (1.9%) got an active call. 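Unnormalised raw counts per well; ratio z-scores behind the hit calls and whether each hit raises or lowers signal are not deposited.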 Reagents against one gene are numbered here. No sequences are given here. The record does not give: the amount of reagent.

gene	reagent	induced reporter light, run 1, well a	induced reporter light, run 1, well b	control promoter light, run 1, well a	control promoter light, run 1, well b	uninduced reporter light, run 1, well a	outcome
CG14636	1	1.14e5	84780	98815	1.02e5	7165	inactive
Ucp4B (Uncoupling protein 4B)	1	1.39e5	1.15e5	1.78e5	1.67e5	10540	inactive
Mayo	1	1.77e5	1.35e5	2.08e5	1.93e5	12440	inactive
CG16904	1	1.59e5	1.34e5	89705	87665	10055	inactive
CG31463	1	1.13e5	1.21e5	1.32e5	1.04e5	8895	inactive
CG31624	1	70775	93765	60470	63415	4950	inactive
Pex13 (Peroxin 13)	1	1.60e5	1.60e5	1.22e5	1.54e5	13225	inactive
CG11588	1	1.58e5	1.78e5	2.00e5	1.83e5	14665	inactive
CG11588	2	1.57e5	1.58e5	2.01e5	1.62e5	6815	inactive
CG7900	1	1.06e5	1.17e5	80925	68380	5782	inactive
CG7900	2						inactive
Snx1 (Sorting nexin 1)	1	1.22e5	1.38e5	1.19e5	99955	8475	inactive
Brca2 (BRCA2, DNA repair associated)	1	1.97e5	1.73e5	2.12e5	2.12e5	14925	inactive
Brca2 (BRCA2, DNA repair associated)	2	1.84e5	1.48e5	1.40e5	1.45e5	13130	inactive
Cyp304a1 (Cytochrome P450 304a1)	1	3.06e5	3.19e5	2.77e5	2.69e5	19645	inactive
a10 (antennal protein 10)	1	1.52e5	2.30e5	2.44e5	1.86e5	9110	inactive
TwdlK (TweedleK)	1	62965	58325	45420	42690	9055	inactive
CG2921	1	1.78e5	1.68e5	1.51e5	1.54e5	14595	inactive
CG10165	1	1.95e5	1.94e5	1.67e5	1.94e5	15045	inactive
CG10492	1	40110	40520	19855	19880	9255	inactive
